± gives the standard deviation of the averaged measurements. This is a selection; strong and weak results do not stand in their true shares. Small differences around the control level are noise.
compound: Nc1ncnc2c1ncn2[C@@H]1O[C@H](COP(=O)(O)OP(=O)(O)NP(=O)(O)O)[C@@H](O)[C@H]1O [adenylyl imidodiphosphate]; assay: NP40-soluble protein abundance relative to vehicle (solubility fold change) (ratio); higher = more soluble protein in presence of AMP-PNP; conditions: concentration: 0.1mM
Method in brief: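 Each value is a fold change relative to the detergent-processed vehicle, calculated per replicate from vsn-normalised intensities. Jurkat crude lysate received eight concentrations (0.1 to 10 mM) for 10 min at room temperature and 3 min at 37 °C, then was solubilised in 0.8% NP40 with benzonase (60 min, 4 °C). The ultracentrifuged supernatant was TMT-labelled and run by LC-MS/MS in three independent experiments.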

Protein sequences, listed by entry. Tags and fused reporters are not part of them. Lines headed by an entry give the natural chain unless they say otherwise; changes in a name come on top.
UniProt Q92997: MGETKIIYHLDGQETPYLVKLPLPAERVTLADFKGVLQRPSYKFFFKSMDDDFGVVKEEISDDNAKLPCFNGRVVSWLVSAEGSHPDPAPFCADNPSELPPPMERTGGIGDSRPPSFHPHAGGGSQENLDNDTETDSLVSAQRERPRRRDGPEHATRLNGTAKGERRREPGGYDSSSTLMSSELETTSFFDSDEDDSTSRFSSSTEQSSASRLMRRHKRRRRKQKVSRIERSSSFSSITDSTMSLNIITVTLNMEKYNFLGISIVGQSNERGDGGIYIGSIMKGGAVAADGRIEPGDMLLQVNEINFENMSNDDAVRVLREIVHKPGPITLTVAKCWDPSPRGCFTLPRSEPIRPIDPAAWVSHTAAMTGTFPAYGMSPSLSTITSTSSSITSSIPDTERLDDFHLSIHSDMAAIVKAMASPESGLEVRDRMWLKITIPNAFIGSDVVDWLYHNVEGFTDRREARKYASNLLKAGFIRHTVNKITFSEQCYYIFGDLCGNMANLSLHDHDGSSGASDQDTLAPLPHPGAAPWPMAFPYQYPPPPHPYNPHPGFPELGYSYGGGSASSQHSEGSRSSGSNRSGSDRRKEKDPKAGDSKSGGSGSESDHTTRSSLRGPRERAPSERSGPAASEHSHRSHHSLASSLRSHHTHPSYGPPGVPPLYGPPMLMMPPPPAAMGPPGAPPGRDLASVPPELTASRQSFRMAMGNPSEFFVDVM
UniProt Q96N16: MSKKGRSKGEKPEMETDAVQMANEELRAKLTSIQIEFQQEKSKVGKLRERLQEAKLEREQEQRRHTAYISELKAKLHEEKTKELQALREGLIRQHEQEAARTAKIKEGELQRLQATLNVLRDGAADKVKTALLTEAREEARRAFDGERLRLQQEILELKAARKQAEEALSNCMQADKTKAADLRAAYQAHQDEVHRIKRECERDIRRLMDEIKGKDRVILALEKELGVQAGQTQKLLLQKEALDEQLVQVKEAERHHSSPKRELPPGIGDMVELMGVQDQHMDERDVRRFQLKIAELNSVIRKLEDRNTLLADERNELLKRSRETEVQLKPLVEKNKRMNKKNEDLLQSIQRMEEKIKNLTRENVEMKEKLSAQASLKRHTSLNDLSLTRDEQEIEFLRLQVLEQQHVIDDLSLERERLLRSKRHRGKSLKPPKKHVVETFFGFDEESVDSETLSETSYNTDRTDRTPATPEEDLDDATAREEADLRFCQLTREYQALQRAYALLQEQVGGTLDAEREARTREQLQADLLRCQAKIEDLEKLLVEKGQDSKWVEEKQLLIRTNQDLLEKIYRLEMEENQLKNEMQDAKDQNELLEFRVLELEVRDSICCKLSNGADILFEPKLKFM
UniProt Q96G23: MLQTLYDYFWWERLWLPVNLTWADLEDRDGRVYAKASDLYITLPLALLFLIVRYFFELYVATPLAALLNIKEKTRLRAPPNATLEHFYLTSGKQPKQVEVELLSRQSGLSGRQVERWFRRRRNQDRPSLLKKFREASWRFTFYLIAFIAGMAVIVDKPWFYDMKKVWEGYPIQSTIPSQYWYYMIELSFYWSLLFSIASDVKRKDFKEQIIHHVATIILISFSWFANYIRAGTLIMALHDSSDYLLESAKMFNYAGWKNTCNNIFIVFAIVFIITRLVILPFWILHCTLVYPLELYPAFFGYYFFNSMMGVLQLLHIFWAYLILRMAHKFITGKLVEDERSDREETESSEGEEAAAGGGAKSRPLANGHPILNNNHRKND
UniProt Q969V5: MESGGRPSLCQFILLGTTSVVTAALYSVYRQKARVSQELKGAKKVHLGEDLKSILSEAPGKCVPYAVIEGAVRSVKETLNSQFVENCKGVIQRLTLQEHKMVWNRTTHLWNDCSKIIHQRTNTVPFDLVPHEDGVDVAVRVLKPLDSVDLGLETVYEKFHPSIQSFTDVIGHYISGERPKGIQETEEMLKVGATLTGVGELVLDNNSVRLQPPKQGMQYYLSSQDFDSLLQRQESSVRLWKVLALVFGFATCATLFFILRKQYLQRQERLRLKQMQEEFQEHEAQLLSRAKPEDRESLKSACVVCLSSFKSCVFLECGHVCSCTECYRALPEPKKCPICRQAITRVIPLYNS
UniProt Q96GD0: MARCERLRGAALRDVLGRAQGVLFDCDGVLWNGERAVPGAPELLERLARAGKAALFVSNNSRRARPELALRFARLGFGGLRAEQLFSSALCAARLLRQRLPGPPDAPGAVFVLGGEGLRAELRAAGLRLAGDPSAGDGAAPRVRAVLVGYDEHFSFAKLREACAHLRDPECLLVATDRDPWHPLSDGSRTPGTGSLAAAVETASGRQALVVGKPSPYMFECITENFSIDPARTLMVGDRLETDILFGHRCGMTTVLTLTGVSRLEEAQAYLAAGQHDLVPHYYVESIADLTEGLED
UniProt Q96CN4: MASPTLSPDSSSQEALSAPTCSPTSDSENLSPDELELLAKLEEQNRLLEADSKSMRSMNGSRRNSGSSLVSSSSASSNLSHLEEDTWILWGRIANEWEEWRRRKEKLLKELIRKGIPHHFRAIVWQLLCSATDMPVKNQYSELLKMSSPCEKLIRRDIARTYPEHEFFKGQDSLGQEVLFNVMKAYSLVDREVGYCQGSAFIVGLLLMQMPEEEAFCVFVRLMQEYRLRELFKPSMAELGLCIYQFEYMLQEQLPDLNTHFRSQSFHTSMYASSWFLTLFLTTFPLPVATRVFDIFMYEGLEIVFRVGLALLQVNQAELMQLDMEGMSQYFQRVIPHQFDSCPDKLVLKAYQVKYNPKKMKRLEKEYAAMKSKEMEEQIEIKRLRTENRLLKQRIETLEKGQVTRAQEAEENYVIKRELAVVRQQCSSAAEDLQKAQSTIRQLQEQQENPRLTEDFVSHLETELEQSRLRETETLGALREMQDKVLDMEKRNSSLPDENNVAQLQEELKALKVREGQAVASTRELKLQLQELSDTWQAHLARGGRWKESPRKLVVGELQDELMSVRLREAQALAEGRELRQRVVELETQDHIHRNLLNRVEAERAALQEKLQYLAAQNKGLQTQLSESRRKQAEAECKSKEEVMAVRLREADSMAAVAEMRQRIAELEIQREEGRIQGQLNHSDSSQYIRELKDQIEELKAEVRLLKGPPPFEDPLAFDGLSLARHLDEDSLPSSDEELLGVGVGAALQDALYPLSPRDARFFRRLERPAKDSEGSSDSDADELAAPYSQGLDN
UniProt Q96GN5: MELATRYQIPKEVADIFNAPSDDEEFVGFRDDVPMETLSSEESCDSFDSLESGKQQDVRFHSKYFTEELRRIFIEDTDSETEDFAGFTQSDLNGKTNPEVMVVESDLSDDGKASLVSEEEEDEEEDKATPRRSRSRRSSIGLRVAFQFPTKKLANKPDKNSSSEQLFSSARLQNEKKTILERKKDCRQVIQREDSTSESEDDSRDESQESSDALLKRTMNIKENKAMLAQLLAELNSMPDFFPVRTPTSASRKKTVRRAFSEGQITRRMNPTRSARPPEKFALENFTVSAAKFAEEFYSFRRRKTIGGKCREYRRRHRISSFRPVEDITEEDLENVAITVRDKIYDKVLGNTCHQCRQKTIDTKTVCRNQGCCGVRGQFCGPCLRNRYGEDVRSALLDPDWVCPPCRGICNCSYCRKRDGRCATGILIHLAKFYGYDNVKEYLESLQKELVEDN
UniProt Q96JK2, whole entry: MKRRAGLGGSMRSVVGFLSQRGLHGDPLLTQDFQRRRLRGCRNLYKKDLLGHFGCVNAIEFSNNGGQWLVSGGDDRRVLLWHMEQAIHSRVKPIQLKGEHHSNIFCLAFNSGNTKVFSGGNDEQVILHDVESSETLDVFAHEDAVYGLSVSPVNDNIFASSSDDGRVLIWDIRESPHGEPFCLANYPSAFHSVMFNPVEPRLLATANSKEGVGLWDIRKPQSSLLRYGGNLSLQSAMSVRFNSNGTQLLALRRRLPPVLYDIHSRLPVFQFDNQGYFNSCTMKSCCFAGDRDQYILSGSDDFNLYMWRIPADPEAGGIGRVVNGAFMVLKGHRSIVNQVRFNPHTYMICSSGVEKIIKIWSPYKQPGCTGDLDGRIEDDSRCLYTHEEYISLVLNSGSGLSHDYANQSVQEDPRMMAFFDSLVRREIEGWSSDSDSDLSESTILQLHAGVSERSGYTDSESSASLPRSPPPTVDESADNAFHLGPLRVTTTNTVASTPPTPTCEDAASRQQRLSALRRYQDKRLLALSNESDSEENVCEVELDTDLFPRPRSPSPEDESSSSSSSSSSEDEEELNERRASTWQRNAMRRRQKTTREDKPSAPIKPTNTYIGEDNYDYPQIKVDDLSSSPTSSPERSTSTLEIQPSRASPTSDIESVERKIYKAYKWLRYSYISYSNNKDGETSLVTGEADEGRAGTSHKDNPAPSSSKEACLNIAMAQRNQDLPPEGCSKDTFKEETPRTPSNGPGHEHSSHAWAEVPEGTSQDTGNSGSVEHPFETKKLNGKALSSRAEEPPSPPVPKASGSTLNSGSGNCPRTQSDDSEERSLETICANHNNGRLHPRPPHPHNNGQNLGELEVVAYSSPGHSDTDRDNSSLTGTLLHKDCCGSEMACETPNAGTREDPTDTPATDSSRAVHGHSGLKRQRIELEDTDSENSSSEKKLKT
UniProt Q969M7: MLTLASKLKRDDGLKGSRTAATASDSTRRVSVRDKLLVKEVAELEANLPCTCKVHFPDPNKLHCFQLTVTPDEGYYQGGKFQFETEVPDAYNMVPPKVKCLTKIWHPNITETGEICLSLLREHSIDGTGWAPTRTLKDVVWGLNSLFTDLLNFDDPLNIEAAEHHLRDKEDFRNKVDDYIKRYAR
UniProt Q96CU9: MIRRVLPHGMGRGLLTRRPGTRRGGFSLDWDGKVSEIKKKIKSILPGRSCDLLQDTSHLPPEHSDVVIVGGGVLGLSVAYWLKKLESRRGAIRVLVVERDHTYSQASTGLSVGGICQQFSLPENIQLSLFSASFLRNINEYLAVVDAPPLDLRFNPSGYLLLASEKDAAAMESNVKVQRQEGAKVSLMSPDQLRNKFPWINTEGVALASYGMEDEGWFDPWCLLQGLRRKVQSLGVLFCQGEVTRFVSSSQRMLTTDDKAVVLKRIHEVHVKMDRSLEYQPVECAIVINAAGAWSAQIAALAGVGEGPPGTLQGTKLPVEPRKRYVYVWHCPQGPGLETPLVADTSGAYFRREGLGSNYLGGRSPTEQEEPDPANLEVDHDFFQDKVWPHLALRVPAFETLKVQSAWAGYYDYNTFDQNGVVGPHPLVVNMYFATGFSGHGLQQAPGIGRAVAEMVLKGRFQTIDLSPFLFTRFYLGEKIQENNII
UniProt Q96EX1: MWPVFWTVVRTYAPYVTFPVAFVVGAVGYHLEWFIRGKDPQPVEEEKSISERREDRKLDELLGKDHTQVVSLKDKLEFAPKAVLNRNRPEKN
UniProt Q969E8: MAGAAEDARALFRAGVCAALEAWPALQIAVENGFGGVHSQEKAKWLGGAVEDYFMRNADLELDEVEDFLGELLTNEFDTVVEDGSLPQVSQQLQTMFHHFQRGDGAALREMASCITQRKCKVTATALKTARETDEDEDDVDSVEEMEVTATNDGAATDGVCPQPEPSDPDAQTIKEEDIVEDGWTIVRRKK
UniProt Q96E09: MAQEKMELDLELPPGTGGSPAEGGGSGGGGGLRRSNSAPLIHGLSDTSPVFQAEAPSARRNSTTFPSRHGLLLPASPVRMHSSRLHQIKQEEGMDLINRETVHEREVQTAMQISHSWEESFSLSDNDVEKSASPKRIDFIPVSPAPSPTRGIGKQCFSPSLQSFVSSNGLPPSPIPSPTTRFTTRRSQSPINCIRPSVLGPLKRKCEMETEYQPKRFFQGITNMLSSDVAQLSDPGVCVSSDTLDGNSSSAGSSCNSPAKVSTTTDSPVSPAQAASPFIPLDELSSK
UniProt Q969S9: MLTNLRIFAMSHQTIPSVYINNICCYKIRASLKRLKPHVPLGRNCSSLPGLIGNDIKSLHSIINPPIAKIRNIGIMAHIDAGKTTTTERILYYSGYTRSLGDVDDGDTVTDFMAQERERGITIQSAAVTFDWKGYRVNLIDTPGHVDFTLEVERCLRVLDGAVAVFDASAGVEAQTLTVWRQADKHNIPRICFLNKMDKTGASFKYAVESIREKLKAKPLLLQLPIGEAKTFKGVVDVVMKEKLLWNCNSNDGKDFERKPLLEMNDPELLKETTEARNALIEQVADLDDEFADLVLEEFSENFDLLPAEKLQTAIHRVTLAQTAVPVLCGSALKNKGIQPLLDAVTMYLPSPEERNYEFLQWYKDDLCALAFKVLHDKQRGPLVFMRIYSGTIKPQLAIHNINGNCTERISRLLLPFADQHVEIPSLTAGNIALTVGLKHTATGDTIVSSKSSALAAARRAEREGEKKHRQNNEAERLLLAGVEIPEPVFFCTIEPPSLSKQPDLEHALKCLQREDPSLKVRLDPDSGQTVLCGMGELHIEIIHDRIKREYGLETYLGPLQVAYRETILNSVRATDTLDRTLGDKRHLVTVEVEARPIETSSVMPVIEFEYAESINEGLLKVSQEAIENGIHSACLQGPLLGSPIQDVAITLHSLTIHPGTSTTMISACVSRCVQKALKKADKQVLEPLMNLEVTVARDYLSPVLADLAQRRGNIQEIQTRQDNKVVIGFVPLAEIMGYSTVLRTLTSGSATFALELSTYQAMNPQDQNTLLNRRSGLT

Target	NP40-soluble protein abundance
UniProt Q92997 and related entries	1.03 ± 0.016
UniProt Q96N16 and related entries	1.03 ± 0.05
UniProt Q96QD9 and related entries	0.991 ± 0.011
UniProt Q96ED9-2|Q96ED9	1 ± 0.018
EFHD2 (UniProt Q96C19)	0.958 ± 0.024
METTL2A (UniProt Q96IZ6)	0.992 ± 0.013
UniProt Q96G23	1.07 ± 0.093
PURB (UniProt Q96QR8)	1.02 ± 0.05
UniProt Q96J02 and related entries	0.987 ± 0.032
MUL1 (UniProt Q969V5)	0.977 ± 0.022

same assay, conditions: concentration: 0.5mM

Target	NP40-soluble protein abundance
PDXP (UniProt Q96GD0)	0.982 ± 0.036
UniProt Q96CN4 and related entries	0.9886 ± 0.0095
RCHY1 (UniProt Q96PM5)	0.95 ± 0.041
UniProt Q96GN5 and related entries	1 ± 0.031
UniProt Q96JK2 and related entries	1 ± 0.052
UniProt Q969M7 and related entries	0.983 ± 0.054
UniProt Q96F44 and related entries	1.001 ± 0.0083
UniProt Q96CU9 and related entries	1.01 ± 0.034
UniProt Q96EX1	1.06 ± 0.086
TSR2 (UniProt Q969E8)	1.03 ± 0.03
ABHD14B (UniProt Q96IU4)	1 ± 0.017
FAM122A (UniProt Q96E09)	1.003 ± 0.0017
ISOC1 (UniProt Q96CN7)	0.991 ± 0.054
EAF1 (UniProt Q96JC9)	1.01 ± 0.041
UniProt Q96L93 and related entries	0.971 ± 0.056
SNF8 (UniProt Q96H20)	0.9883 ± 0.0082
UniProt Q969S9 and related entries	1 ± 0.015

Two records drawn at random from those above:
Target	NP40-soluble protein abundance
RCHY1 (UniProt Q96PM5)	0.95 ± 0.041
UniProt Q969S9 and related entries	1 ± 0.015
